Data: PubChem BioAssay AID1259354 (Paczesny and Yang Labs, IUPUI and University of Michigan, 2018)
Where “and” joins values, the source holds several entries; their conditions need not be identical. Equal values may be shown once. The campaign covered roughly 78,000 compounds. About 1,800 (2.3%) were called active. The inconclusive results got no clear call from the source; some entries with a clear call stand among them for comparison. Cut-off read from the data, not from the text of the source: active = inhibition above about 30%; inconclusive = mostly about 10% to 28%; inactive = weaker than that.

Amino acid sequences for entries named in this document (tags omitted). A change or cut given only in a name is not applied to a line headed by its entry.
UniProt Q01638: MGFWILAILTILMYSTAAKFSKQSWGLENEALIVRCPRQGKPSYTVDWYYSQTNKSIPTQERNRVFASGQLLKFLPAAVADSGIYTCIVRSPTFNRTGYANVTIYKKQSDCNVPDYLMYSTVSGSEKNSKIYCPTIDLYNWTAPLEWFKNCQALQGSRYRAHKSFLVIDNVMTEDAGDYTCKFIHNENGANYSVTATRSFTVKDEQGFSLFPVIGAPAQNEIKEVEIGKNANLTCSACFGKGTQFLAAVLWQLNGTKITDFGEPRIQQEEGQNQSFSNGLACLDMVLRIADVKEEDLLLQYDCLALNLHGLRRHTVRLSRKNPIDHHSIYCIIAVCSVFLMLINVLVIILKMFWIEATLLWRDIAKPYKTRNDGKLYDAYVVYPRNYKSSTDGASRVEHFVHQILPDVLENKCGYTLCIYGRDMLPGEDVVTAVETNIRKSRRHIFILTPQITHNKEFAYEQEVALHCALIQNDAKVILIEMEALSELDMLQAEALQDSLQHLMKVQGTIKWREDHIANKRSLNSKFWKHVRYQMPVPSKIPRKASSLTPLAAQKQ

target: Interleukin-1 receptor-like 1 (Homo sapiens) (UniProt Q01638); experiment: blocks human ST2 binding to IL-33, primary screen, biochemical, AlphaLISA (AID 1259354); conditions: AlphaLISA ST2-Fc/biotin-IL-33 interaction, 1 h; at 17 µM, stronger effect = higher value

Row | Structure (SMILES) | inhibition
1 | O=C(Nc1ccc(Cl)cn1)C1(S(=O)(=O)c2ccc(Cl)cc2)CC1 | inconclusive: 10%
2 | Fc1ccc(C2Nc3ccc(Br)cc3C3C=CCC32)cc1 (stereo not given) | inconclusive: 25%
3 | CC(C)(O)C#CCN1CCCCC1 | inactive
4 | CC(C)(C)n1cnc2cc(NCc3cccs3)ccc21 | inconclusive: 14%
5 | COc1ccc(C2C(C(=O)N(C)c3ccc(Cl)cc3)CC(=O)N2c2ccc(OC)cc2)cc1 (stereo not given) | inactive
6 | COc1ccccc1-n1nc(CC(C)C)nc1CCc1cnn(C)c1 | inconclusive: 16%
7 | O=c1cc(-c2ccccc2)nc(Nc2nc3ccccc3o2)[nH]1 | inconclusive: 13%
8 | Cc1ccc(-c2cc(O)c3c(c2)CN(C(=O)CCc2n[nH]c(C)n2)CCO3)cc1 | inconclusive: 15%
9 | Cc1ccc2ncc(NC(=O)c3cccs3)c(=O)n2c1 | active: 83%
10 | Cc1ccc(-n2c(=O)c3sccc3n(CC(N)=O)c2=O)cc1F | inactive
11 | CCn1cc(CNC(=O)CC2C(=O)NCCN2Cc2ccc(-c3ccccc3)cc2)cn1 (stereo not given) | inconclusive: 21%
12 | Cc1ccc(/C=C2/SC(=Nc3ccccc3Cl)NC2=O)cc1 | inconclusive: 15%
13 | COc1ccc(Nc2c(-c3ccco3)nc3ccc(C)cn23)cc1 | inconclusive: 25%
14 | O=C(Oc1cccc(NC2=NS(=O)(=O)c3ccccc32)c1)c1ccccc1Cl | inconclusive: 19%
15 | Cc1cc(NS(=O)(=O)c2ccc(NC(=O)C3CC3c3ccccc3)cc2)nc(C)n1 (stereo not given) | inactive
16 | c1ccc(CCc2noc(CN3CCC(c4ccncc4)CC3)n2)cc1 | inconclusive: 10%
17 | Cc1ccc(S(=O)(=O)NCCO)cc1 | inconclusive: 12%
18 | CCCOc1ccc(Oc2nc(NCC)nc(N(C)C)n2)nn1 | inconclusive: 10%
19 | CC(=O)N1CCC(N2C[C@@H]3OCC(=O)N(c4ccccc4)[C@@H]3C2)CC1 | inconclusive: 14%
20 | O=c1[nH]c(-c2ccccc2)nc2c1C1(CCCCC1)Cc1ccccc1-2 | inactive
21 | O=C(c1cn(CCc2ccccc2)nn1)N1CCCC(OCc2ccccc2)C1 (stereo not given) | inactive
22 | COc1ccc(C2CC(c3c(C)cc(C)[nH]c3=O)=NN2c2ccccc2C)cc1 (stereo not given) | inconclusive: 12%
23 | CC(=O)Nc1cc2c(cc1C(=O)c1ccccc1Br)OCCO2 | inconclusive: 12%

Row | Structure (SMILES) | inhibition
24 | CC1(C)Cc2c(sc3nc(NN)nc(NN)c23)CO1 | inconclusive: 14%
25 | Cc1ccc(/C=C2\CS/C(=C\c3ccc(C)o3)C2=O)o1 | active: 60%
26 | COC(=O)C1=CO[C@@H](O[C@@H]2O[C@H](CO)[C@@H](O)[C@H](O)[C@H]2O)[C@H]2[C@@H]1C=C[C@@]21C=C([C@H](C)OC(=O)/C=C/c2ccc(O[C@@H]3O[C@H](CO)[C@@H](O)[C@H](O)[C@H]3O)cc2)C(=O)O1 | inconclusive: 11%
27 | CN(CCNC1CCN(c2ccc(F)cc2)C1)S(C)(=O)=O (stereo not given) | inconclusive: 11%
28 | Cc1cc(C)n(C(C)C(=O)N2Cc3cnc(-c4ccccc4)nc3C2)n1 (stereo not given) | inconclusive: 17%
29 | O=C(Nc1cccc(-n2cccn2)c1)C1CCCN1C(=O)c1ccsc1 (stereo not given) | inconclusive: 10%
30 | COC(=O)C(C)Sc1nc2c([nH]c3ccccc32)c(=O)n1-c1cccc(OC)c1 (stereo not given) | inconclusive: 17%
31 | COc1cccc(NC(=O)/C(C#N)=C\c2cn(Cc3ccc(C)cc3)c3ccccc23)c1 | active: 30%
32 | CC1=C(C(=O)Nc2ccccc2C)C(c2ccncc2)n2nc(SCc3ccccc3)nc2N1 (stereo not given) | active: 33%
33 | CN1CCCCC1CCNC(=O)c1ccc(NCc2ccc3c(c2)OCO3)nc1 (stereo not given) | inconclusive: 20%
34 | CSc1nnc(SCc2nc3ccccc3[nH]2)s1 | inconclusive: 13%
35 | COc1ccc(-c2nc(SCC(N)=O)c3c(=O)n(C)c(=O)n(C)c3n2)cc1 | inconclusive: 11%
36 | CCOCCCn1c(=N)c(C(=O)NCCCOC)cc2c(=O)n3ccccc3nc21 | inactive
37 | CC1Cc2ccccc2N1C(=O)C(=O)N1CCN(C)C2(CCN(C)CC2)C1 (stereo not given) | inconclusive: 10%
38 | O=C(CSc1ccccc1)NC1CCCN(C2Cc3ccccc3C2)C1 (stereo not given) | inactive
39 | Oc1ccc(-c2csc(Nc3ncccn3)n2)cc1O | active: 44%
40 | COc1ccc2cc(C(=O)C3CCCN(C(=O)Nc4c(C)cccc4Cl)C3)ccc2c1 (stereo not given) | inconclusive: 18%
41 | CCCCOc1ccc(C(=O)N(c2ccc(C(C)C)cc2)C2C=CS(=O)(=O)C2)cc1 (stereo not given) | inactive
42 | Fc1ccc(-c2cc(C(F)(F)F)nc(NCc3cccnc3)n2)cc1 | inactive
43 | CC(Nc1cc(N(C)C)ncn1)c1cc(F)cc(F)c1 (stereo not given) | inconclusive: 18%
44 | COC(=O)c1c(-c2cc(OC)c(OC)c(OC)c2)c2ccnc(OCc3ncccn3)c2c(=O)n1Cc1ccnc(C)c1 | inconclusive: 25%
45 | O=C(c1cc2sccc2[nH]1)N(Cc1cccnc1)CC1CCCN(C2CCCCC2)C1 (stereo not given) | inactive
46 | Cc1nc(N2CCCCCCC2)ncc1C(C)NCc1cnn(C(C)C)c1 (stereo not given) | inconclusive: 22%

Given comma-delimited: entries from further up
Row,Structure (SMILES),inhibition
24,CC1(C)Cc2c(sc3nc(NN)nc(NN)c23)CO1,inconclusive: 14%
28,Cc1cc(C)n(C(C)C(=O)N2Cc3cnc(-c4ccccc4)nc3C2)n1 (stereo not given),inconclusive: 17%
29,O=C(Nc1cccc(-n2cccn2)c1)C1CCCN1C(=O)c1ccsc1 (stereo not given),inconclusive: 10%
30,COC(=O)C(C)Sc1nc2c([nH]c3ccccc32)c(=O)n1-c1cccc(OC)c1 (stereo not given),inconclusive: 17%
36,CCOCCCn1c(=N)c(C(=O)NCCCOC)cc2c(=O)n3ccccc3nc21,inactive
45,O=C(c1cc2sccc2[nH]1)N(Cc1cccnc1)CC1CCCN(C2CCCCC2)C1 (stereo not given),inactive
46,Cc1nc(N2CCCCCCC2)ncc1C(C)NCc1cnn(C(C)C)c1 (stereo not given),inconclusive: 22%

Continued:

Row | Structure (SMILES) | inhibition
47 | FC(F)(F)c1cccc(CCC2CCCNC2)c1 (stereo not given) | inactive
48 | COc1ccccc1CN1CCN(Cc2ccc3c(c2)OCO3)CC1 | inconclusive: 28%
49 | COc1ccc(NC(=O)c2ccccc2[N+](=O)[O-])cc1 | inconclusive: 13%
50 | Cn1c(SCc2ccc(F)cc2)nc2c([nH]c3ccccc32)c1=O | inconclusive: 14%
51 | CCOc1ccc(C(=O)Nc2cccc(NC(=O)c3ccco3)c2)cc1Br | inconclusive: 11%
52 | Cc1cccc(-c2noc([C@@H]3Cc4nc[nH]c4CN3C(=O)Nc3cccc(F)c3)n2)c1 | inconclusive: 15%
53 | Cc1ccc(CN2CCN(c3ccncc3F)CC2)cc1 | inactive
54 | CC1CCN(C2=NC(=O)/C(=C/c3cccc(O)c3)S2)CC1 | inconclusive: 13%
55 | Nc1nc(Cc2ccc([N+](=O)[O-])cc2)ns1 | inconclusive: 16%
56 | CN=C1S/C(=C/c2cc3c(cc2[N+](=O)[O-])OCO3)C(=O)N1C | inconclusive: 10%
57 | Cc1ccc(C(=O)Nc2ccc(Br)c3cccnc23)cc1 | inconclusive: 10%
58 | OCC1(Cc2cccc(C(F)(F)F)c2)CCN(Cc2ccnc3ccccc23)CC1 | inactive
59 | Cc1cc(Cl)nc(Cl)c1C(=O)NC(=O)NCc1ccc(Cl)cc1 | inconclusive: 16%
60 | Oc1cc(-c2nc3ccccc3o2)c(O)cc1-c1nc2ccccc2o1 | inconclusive: 14%
61 | c1cn2c(Nc3ccc4c(c3)OCCO4)c(-c3ccsc3)nc2cn1 | inconclusive: 13%
62 | O=C(N[C@H]1CCCCNC1=O)c1ccc(N2CCC(NCc3ccc(Cl)s3)CC2)cc1 | inconclusive: 15%
63 | Cc1ccc(-n2c(SCc3ccc(F)cc3)nc3c(c2=O)SCC3)cc1 | active: 31% and inconclusive: 14%
64 | CC1(C)CC(=O)C2=C(C1)Nc1nc(SCc3ccccc3F)[nH]c(=O)c1C2c1ccncc1 (stereo not given) | inconclusive: 10%
65 | CCN(CC)c1ccc(CNc2ccc3c(c2)ncn3C)cc1 | active: 50% and inconclusive: 16%
66 | O=C(NC1CCCCCC1)c1cc2cc3ccc(Cl)cc3nc2o1 | active: 36% and inconclusive: 24%
67 | COc1ccccc1N1CCN(C(=O)c2cccs2)CC1 | inconclusive: 11%
68 | N#CC1=C(N)OC2=C(C(=O)CCC2)C1c1cc2c(cc1[N+](=O)[O-])OCO2 (stereo not given) | inconclusive: 18%
69 | CC(C(=O)Nc1ccc(Cl)cc1O)N1C(=O)c2ccccc2C1=O (stereo not given) | inconclusive: 17%

Row | Structure (SMILES) | inhibition
70 | O=C(COc1ccc([N+](=O)[O-])cc1)c1ccc(F)cc1 | inactive
71 | O=c1c(-c2ccc(OC(F)(F)F)cc2)ccc2n1C[C@H]1C[C@@H]2CN(S(=O)(=O)c2ccccc2)C1 | inconclusive: 16%
72 | COC(=O)c1ccc(C2C(C(=O)Nc3ccc(C)cc3C)=C(C)Nc3nnnn32)cc1 (stereo not given) | inactive
73 | O=C(CCS(=O)(=O)c1cccc2nonc12)N1CCCCC1 | inconclusive: 11%
74 | COc1ccc(C(=O)N2CCN(CC(=O)N3CCOCC3)CC2)cc1 | inconclusive: 21%
75 | Cc1cccc(CSC2=NCCN2C(=O)Cc2ccccc2)c1 | inactive
76 | O=C(CN1CCOc2ccccc2C1)NCc1cnn2ccccc12 | inconclusive: 18%
77 | c1cc(-c2ccc3c(c2)OCO3)nc(N[C@H]2CO[C@H]3[C@@H]2OC[C@@H]3NCC2CC2)n1 | inconclusive: 17%
78 | Cc1cccc(OCCOCCOc2ccc(/C=C3\C(=O)NN(c4ccccc4)C3=O)cc2)c1 | active: 34%
79 | COc1ccc(/C=C2/SC(=O)N(CCCC(=O)Nc3cccc(O)c3)C2=O)cc1 | inconclusive: 22%
80 | CC(=O)N1N=C(c2cccs2)CC1c1ccc(C)cc1 (stereo not given) | inconclusive: 21%
81 | CCNC(=O)C1CCN(C(=O)c2cc(CN(C)Cc3ccccc3)on2)C1 (stereo not given) | inconclusive: 10%
82 | C=CCOc1ccc(/C=C2/C(=O)N(c3cccc(Br)c3)N=C2C)cc1OC | inconclusive: 19%
83 | O=C(C1CC1)N1CCc2cc(S(=O)(=O)Nc3cccc(Cl)c3)ccc21 | inactive
84 | CCc1ccc(CN(C)C(=O)c2ccc3c(c2)no[n+]3[O-])nc1 | inconclusive: 15%
85 | O=C(/C=C/c1ccc(Cl)cc1)Nc1cccc(C(F)(F)F)c1 | inconclusive: 18%
86 | O=C1NN(c2ccc(Cl)c(Cl)c2)C(=O)/C1=C\c1cc2c(cc1[N+](=O)[O-])OCO2 | inactive
87 | COc1cccc(OCCOc2ccc(/C=C3\C(=O)NN(c4ccccc4)C3=O)cc2)c1 | inactive
88 | O=C(Nc1ccc(-c2nc3ccccc3o2)cc1)C1CCN(C(=O)c2ccccc2)CC1 | inconclusive: 10%
89 | COC(=O)c1c(NC(=O)COc2ccccc2Cl)sc2c1CCC2 | inactive
90 | CCCOC1CCCN(C(=O)c2cc(Cn3nc(C)cc3C)[nH]n2)C1 (stereo not given) | inactive
